The values that follow come from publication PMC7550751, “Application of Force to a Syndecan-4 Containing Complex With Thy-1–αVβ3 Integrin Accelerates Neurite Retraction” (Frontiers in Molecular Biosciences, 2020).

The chains behind the UniProt entries cited, without tags or fusion partners. Residues count along the entry.
UniProt P09038, residues 143-288: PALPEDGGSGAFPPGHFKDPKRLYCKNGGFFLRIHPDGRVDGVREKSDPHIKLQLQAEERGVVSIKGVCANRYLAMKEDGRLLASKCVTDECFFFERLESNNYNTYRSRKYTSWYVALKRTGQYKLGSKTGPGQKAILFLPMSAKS

For one experiment, the target named is T1, Thy-1-Fc wild type (UniProt P01831 20-131).
T1 construct: In the functional rows m1 stands for Thy-1 on the surface of CAD neuronal cells; also called Thy-1(RLD)-Fc; CD90; source: purified; obtained as previously reported (Schneider, 2000; Leyton et al., 2001)
T1 sequence (looked up): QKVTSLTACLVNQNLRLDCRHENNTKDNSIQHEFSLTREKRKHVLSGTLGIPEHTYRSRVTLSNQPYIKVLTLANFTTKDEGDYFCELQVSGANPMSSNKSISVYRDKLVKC
The experiment in a line: optical tweezers force spectroscopy (force-ramp adhesion frequency assay); miniTweezers; Fc proteins on protein G-coated polystyrene beads at femtomolar concentration; Thy-1-Fc (wild type or mutant) on the 2.1 μm bead held by a micropipette, Syndecan-4-Fc on the 3.1 μm optically trapped bead; loading rate 10 pN/s; at least 50 approach-retraction cycles per 4-5 pairs of beads; 10 mM Hepes pH 7.4, 100 mM NaCl, 1 mM MgCl2, 25°C; both purified.

The target of experiment [1] is recombinant human basic Fibroblast Growth Factor (human) (UniProt P09038). The experiment in a line: ELISA; bFGF (1 μg/ml) immobilised overnight at 4°C on a 96-well Maxisorp plate; serum-free medium containing Syndecan-4-Fc added for 2 h at 37°C; detected with HRP-coupled goat anti-human IgG1 and TMB (absorbance at 450 nm); only the target purified. On the technique in general: An ELISA detects its analyte on a solid surface through an enzyme-linked reagent.

These are yes or no findings as the source states them, for the method shown. Some entries that bind do so weakly or less than the wild type. Tags and fused reporters may be left off the sequences shown.

B1: Commercially purified human Syndecan (ectodomain)-4-Fc (Fc fusion, UniProt P31431 19-145, looked up)
chain: ESIRETEVIDPQDLLEGRYFSGALPDDEDVVGPGQESDDFELSGSGDLDDLEDSMIGPEVVHPLVPLDNHIPERAGSGSQVPTEPKKLEENEVIPKRISPVEESEDVSNKVSMSSTVQGSNIFERTE
notes: Syndecan-4, human, ectodomain; Heparan sulfate proteoglycan; also called Syndecan-4-Fc; Synd-4-Fc
As for B1, in the experiment with Thy-1-Fc wild type, the binding result is recorded as “binds”.

B2: Syndecan-4-Fc (serum-free medium of transfected HEK293T cells) (Fc fusion, UniProt P31431 19-145)
chain: ESIRETEVIDPQDLLEGRYFSGALPDDEDVVGPGQESDDFELSGSGDLDDLEDSMIGPEVVHPLVPLDNHIPERAGSGSQVPTEPKKLEENEVIPKRISPVEESEDVSNKVSMSSTVQGSNIFERTE
modifications: heparan sulfate chains (shown by Heparitinase III treatment and immunoblot)
B2: the binding entry in experiment [1] is “binds”.
